According to US10645929B2, “Pyrimidine compound” (Sumitomo Chemical Company, Limited, priority 2015, dated 2020):
Some of these results come from one statement about several compounds together. At least one structure is not confirmed: it was looked up by name or label, or the drawing left a doubt.

Columns and labels:
Assay type in all cases: in vivo
[1] = tested on: brown planthopper (Nilaparvata lugens); experiment: Test Example 3: spray on rice seedlings, brown planthopper; settings: spray 10 mL/seedling, 3rd instar larvae, after 6 days
[2] = tested on: brown planthopper (Nilaparvata lugens); experiment: Test Example 4: rice seedlings standing in diluted solution, brown planthopper released after 7 days; settings: 200 ppm, 5 mL diluted solution, 3rd instar larvae released after 7 days, counted after additional 6 days
[3] = tested on: cotton aphid (Aphis gossypii); experiment: Test Example 1: spray on cucumber seedlings infested with cotton aphid; settings: spray 10 mL/seedling, 5 days after spraying
[4] = tested on: cotton aphid (Aphis gossypii); experiment: Test Example 2: irrigation into plant foot of cucumber seedlings, cotton aphid released after 7 days; settings: 200 ppm, irrigation 5 mL/seedling, aphids released after 7 days, counted after additional 6 days

Measured: controlling value

CCS(=O)(=O)c1cccnc1-c1ncc(OCC(F)(F)C(F)(F)C(F)(F)F)cn1 [compound 5]
≥ 90%: [1]; 200 ppm | [2] | [3]; 200 ppm | [4]

CCS(=O)(=O)c1cc(C(F)(F)F)ccc1-c1ncc(OCC(F)(F)C(F)(F)F)cn1 [compound 1]
≥ 90%: [3]; 500 ppm

CCS(=O)(=O)c1cccnc1-c1ncc(OCC(F)(F)C(F)(F)F)cn1 [compound 4]
≥ 90%: [1]; 200 ppm | [1]; 500 ppm | [2] | [3]; 200 ppm | [3]; 500 ppm | [4]

CCS(=O)(=O)c1cccnc1-c1ncc(OCC(F)(F)C(F)F)cn1 [compound 3]
≥ 90%: [1]; 500 ppm | [2] | [3]; 200 ppm | [3]; 500 ppm | [4]
